For 59 compounds, cell number change and AC50 results are on record in PubChem BioAssay AID2685 (National Center for Advancing Translational Sciences (NCATS), 2010).

The other results are listed elsewhere or left out. Shown are side measurements of this screen, not its main read-out; they come without a call. The list favours compounds with an active or inconclusive main result. Words in brackets tell the shape of the fitted curve; partial curves, single points and poor fits give uncertain potencies.

The nature of this experiment: qHTS Assay for Lipid Storage Modulators in Drosophila S3 Cells.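 For cell number change: cells counted by Cell Tracker Red CMTPX staining in the red channel.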 The note with it: BODIPY lipid droplet fluorescence, 18-24 h; for cell number change: measured here: cell count max response, cells fed with added oleic acid. The essentials: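 Drosophila S3 cells got compounds at several concentrations plus oleic acid (400 uM solution). Laser-scanning cytometry with 488 nm excitation read lipid droplets at 500-530 nm and cells at 575-640 nm. Percent activity was relative to 20 uM Triacsin C.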
For orientation: Quantitative high-throughput screening tests each substance at several concentrations.

The mark [1] stands for this setting: measured here: lipid fluorescence (Fed channel) AC50, cells fed with added oleic acid.
Setting [2] is: measured here: cell number channel AC50, cells fed with added oleic acid.

By AC50 is commonly meant the concentration giving half of the maximal activity seen. A higher AC50 goes with weaker potency. Take `CCNC(=O)COc1ccc(CC)cc1`: the cell number change came out at 6.9%. Moreover, the AC50 under setting [1] is 18.4 µM [falling, single point].

As to `Cc1csc(-c2cnn(-c3ccccc3)c2NC(=O)c2ccc(C(F)(F)F)cc2)n1`, the cell number change was -13%. Also, under setting [1], the AC50 was 4.61 µM [falling, single point].

Turning to `O=C(CCSc1ccccc1)NC(=O)COC(=O)C1CCCCC1`, the cell number change was -63.2%. Moreover, under setting [2], the AC50 was 23.1 µM [falling, single point]. For the same compound, under setting [1], the AC50 is 29.1 µM [falling, single point].

In the case of `O=C(CCNC(=O)c1ccc(Cl)cc1)NC1CCCc2ccccc21` (centres undefined), the cell number change is -9.97%. In addition, the half-maximal activity concentration (AC50) under setting [2] was 0.146 µM [falling, full curve, poor fit]. The AC50 under setting [1] is 2.59 µM [falling, single point].

For `Cc1cc(OC(F)F)ccc1NC(=S)NCCc1ccccc1`, the cell number change is -4.46%. The AC50 under setting [2] was 1.3 µM [rising, partial curve].

As to `O=C(C1COc2ccccc2O1)N1CCn2c(nc3ccccc32)C1` (centres undefined), the cell number change was -1.9%. Further, the AC50 under setting [1] was 0.651 µM [falling, full curve].

For the compound `COc1ccc(C(=O)Oc2coc(CSc3nnc(NC(=O)c4cccs4)s3)cc2=O)cc1`, the cell number change was found to be 14.7%.

Turning to `CCCC1(c2ccccc2)NC(=O)N(CC(=O)Nc2cc(S(=O)(=O)N3CCOCC3)ccc2Cl)C1=O` (centres undefined), the cell number change is 1.62%.

As for `Cn1c(SCCOc2ccccc2F)nc2ccccc2c1=O`, the cell number change is 9.13%.

On to `Cc1ccc(NC(=O)c2ccc(S(=O)(=O)N3CCCC3)cc2)nc1`, for which the cell number change was found to be 10.1%.

As to `CCOC(=O)N/N=C/c1c(F)c(F)c(F)c(F)c1F`, the cell number change was -12%. Also, the AC50 under setting [2] was 4.11 µM [falling, single point]. Besides, under setting [1], the AC50 is 4.61 µM [falling, single point].

For the compound `COc1ccc(OC(C)C(=O)Nc2cccc(OC)c2)cc1` (centres undefined), the AC50 under setting [2] is 6.51 µM [falling, single point].

Regarding `CCC(C)NC(=O)CS(=O)Cc1nc(-c2cccc(OC)c2)oc1C` (centres undefined), the cell number change is -26%. Also, under setting [1], the AC50 was 11.6 µM [rising, partial curve, poor fit].

Consider `CCN(CC)c1ccc(/C=N/NC(=O)Nc2ccccc2)cc1`, for which the cell number change is -39.6%. In addition, the AC50 under setting [2] is 29.1 µM [falling, single point].

Take `O=C(c1ccc(Cl)c(S(=O)(=O)N2CCOCC2)c1)N1CCN(c2ccccc2)CC1`: the cell number change is -8.67%. The AC50 under setting [1] is 0.103 µM [falling, full curve, poor fit].

Consider `O=C(COC(=O)c1cc(=O)[nH]c2ccccc12)Nc1ccc(Cl)cn1`, for which the cell number change is 39.9%. The AC50 under setting [2] was 9.2 µM [rising, partial curve, poor fit]. Under setting [1], the AC50 is 8.2 µM [rising, partial curve, poor fit].

On to `O=C1C=C(c2ccc3ccccc3c2)C[C@@H](c2ccc(Cl)cc2)C1`, for which the cell number change came to 6.14%. Also, under setting [1], the AC50 was 0.651 µM [rising, full curve].

Consider `CC(C)N(C(=O)CSc1nnc(Cn2nnc3ccccc32)n1C)C(C)C`, for which the cell number change is -14.3%. For the same compound, the AC50 under setting [1] was 18.4 µM [falling, partial curve].

For the compound `CCOC(=O)c1c(-c2ccc(OC)cc2)csc1/N=C/N(C)C`, the AC50 under setting [2] was 2.06 µM [rising, single point].

For the compound `CCc1ccc(C(=O)COC(=O)c2n[nH]c3ccccc23)cc1`, the cell number change stood at 9.63%.

Regarding `CN(Cc1ccccc1)C(=O)COC(=O)c1cc(-c2ccc(Cl)s2)nc2ccccc12`, the cell number change was 60.6%. For the same compound, the AC50 under setting [2] was 18.4 µM [rising, single point]. In addition, the AC50 under setting [1] was 5.8 µM [rising, full curve].

Take `COc1cc(CC(=O)NCCc2ccc(OCc3ccccc3)cc2)c([N+](=O)[O-])cc1OC`: the cell number change stood at 6.21%. Under setting [2], the AC50 was 1.64 µM [rising, partial curve, poor fit].

With `CCOc1ccc2nc(SCC(=O)Nc3cc(C)on3)c(C)cc2c1`, the cell number change is 10.3%. Besides, the AC50 under setting [1] is 16.4 µM [rising, partial curve].

For the compound `C/C(=N\NC(=O)c1cccc(S(=O)(=O)N2CCCC2)c1)c1ccc(F)cc1`, the AC50 under setting [1] is 2.91 µM [rising, single point].

In the case of `Cc1ccccc1NC(=O)NCc1ccc2c(c1)OCO2`, the cell number change was -3.18%.

For `O=C(c1cc(S(=O)(=O)N2CCCCC2)c(Cl)cc1N1CCOCC1)N1CCOCC1`, the cell number change was determined as 37.9%. Moreover, the AC50 under setting [2] was 1.03 µM [rising, partial curve, poor fit]. Further, the AC50 under setting [1] was 8.2 µM [rising, partial curve, poor fit].

Turning to `COc1ccc(OC)c(NC(=O)C2=C(C)NC(=O)NC2c2cccs2)c1` (centres undefined), the AC50 was 0.58 µM [rising, single point] under setting [2] and 0.651 µM [rising, single point] under setting [1].

Turning to `O=C(NCCC1CCCCN1S(=O)(=O)c1ccccc1)C(=O)Nc1ccccc1` (centres undefined), the cell number change is -25.2%. Besides, the AC50 under setting [1] was 29.1 µM [falling, single point].

Take `CCN(CC)S(=O)(=O)c1ccc(C(=O)N2CCc3ccccc32)cc1`: the AC50 under setting [2] is 0.731 µM [falling, single point].

`Cc1noc(C)c1CSc1cc(C)c2ccccc2n1`: the cell number change was -22.8%. Also, the AC50 under setting [1] is 4.61 µM [rising, full curve, poor fit].

Consider `CN1C(=O)N(C)C2(c3ccccc3)NNC(N)=NC12c1ccccc1` (centres undefined), for which the cell number change was found to be 19%. The AC50 under setting [1] was 0.82 µM [falling, single point].

`O=C1/C(=C/c2cccs2)Sc2ccccc21`: the cell number change is -19.1%. The AC50 under setting [1] was 18.4 µM [falling, single point].

On to `Cc1ccc2c(c1)N(CC(=O)NC1CCC(C)CC1)C(=O)CO2` (centres undefined), for which the cell number change was found to be 1.12%. In addition, the AC50 under setting [2] was 0.146 µM [rising, full curve, poor fit]. Further, the AC50 under setting [1] is 0.82 µM [rising, full curve].

As for `CCN1C(=O)[C@H]2[C@@H](c3ccc(C)cc3)N3C(=O)N(c4cccc(Cl)c4)C(=O)[C@@]3(CC(C)C)[C@H]2C1=O`, the cell number change turned out to be 46.1%. Besides, the AC50 under setting [2] is 13 µM [rising, single point].

As to `NS(=O)(=O)c1ccc(NC(=O)CCc2ccccc2)cc1`, the cell number change was determined as 13.8%. Also, the AC50 under setting [1] is 29.1 µM [rising, single point].

As for `CC(=O)c1cccc(NS(=O)(=O)c2ccc3c(c2)oc(=O)n3C)c1`, the cell number change was 220%. Also, under setting [2], the AC50 is 10.3 µM [rising, partial curve]. The AC50 under setting [1] was 29.1 µM [rising, single point].

As to `C=CCNC1=C(Cl)C(=O)N(c2cccc(Cl)c2Cl)C1=O`, the cell number change is -14.5%. In addition, the AC50 under setting [1] was 0.00461 µM [rising, full curve, poor fit].

Take `O=C(COC(=O)/C=C/c1ccccc1)NC1CC1`: the cell number change came to 13.3%. In addition, the AC50 under setting [1] was 16.4 µM [rising, single point].

Take `Cc1ccc2c(c1)N(S(=O)(=O)c1cc(-c3onc(C)c3C)ccc1C)CCO2`: the cell number change was -5.2%.

Consider `COc1ccccc1NS(=O)(=O)c1ccc(C)c(C(=O)NC2=NCCS2)c1`, for which the cell number change stood at 12.1%. The AC50 under setting [1] was 16.4 µM [falling, single point].

On to `Cc1cccc(NC(=S)Nc2cccc3ccccc23)c1`, for which the cell number change was -44.1%. The AC50 under setting [2] is 0.00517 µM [falling, full curve, poor fit]. Under setting [1], the AC50 was 6.51 µM [falling, single point].

As to `O=C(CNc1cccc([N+](=O)[O-])c1)N/N=C/c1ccc([N+](=O)[O-])o1`, the cell number change was -55.1%. Besides, under setting [1], the AC50 was 1.46 µM [falling, partial curve].

Consider `Cc1ccc(NC(=O)/C(=C\c2ccccc2)NC(=O)/C=C/c2ccccc2)cc1`, for which the cell number change is -13.8%.

`O=C(OCCOc1cccc(Cl)c1)c1cc(S(=O)(=O)N2CCOCC2)ccc1F`: the cell number change is -14.9%. In addition, the AC50 under setting [1] is 0.461 µM [rising, partial curve, poor fit].

In the case of `CCNC(=O)NC(=O)COC(=O)c1cccc(NS(=O)(=O)/C=C/c2ccccc2)c1`, the cell number change is -66.7%. Besides, the AC50 under setting [2] is 0.82 µM [falling, full curve].

Regarding `CCn1ncc(C2=NOC(C(=O)Nc3ccccc3C(=O)OC)C2)c1C` (centres undefined), the cell number change was -11.1%. The AC50 under setting [1] was 1.16 µM [rising, single point].

As for `Cc1ccc(S(=O)(=O)N2CCCCC2)cc1NC(=O)c1cnccn1`, the cell number change turned out to be 155%. Besides, under setting [2], the AC50 was 18.4 µM [rising, single point].

With `COc1ccc(-c2cc3ccccc3oc2=O)cc1NC(=O)c1ccc(Br)o1`, the cell number change was -66.5%. In addition, under setting [2], the AC50 was 29.1 µM [falling, single point].

For `CN(C)C(CNC(=O)CCC(=O)c1ccc(Br)cc1)c1ccccc1` (centres undefined), the cell number change is -13.9%. Also, under setting [2], the AC50 is 0.731 µM [falling, single point].

With `O=C(CCS(=O)(=O)c1ccccc1)OCc1ccc([N+](=O)[O-])cc1`, the cell number change was 14.7%. Moreover, the AC50 under setting [1] was 0.00517 µM [rising, full curve, poor fit].

As for `CCc1ccc(NC(=O)C2=CC(c3ccc(OC)c(OC)c3)=NS(=O)(=O)N2C)cc1`, the cell number change was -12.1%. Further, the AC50 under setting [1] was 7.31 µM [falling, partial curve].

In the case of `CC(C)NC(=O)CSc1nc2ccccc2c(=O)n1CCCOC(C)C`, the cell number change was found to be 10.9%. The AC50 under setting [2] is 1.03 µM [rising, full curve]. Further, the AC50 under setting [1] is 16.4 µM [rising, single point].

Consider `Cc1cccc(OCC(=O)N(Cc2ccco2)C2CCS(=O)(=O)C2)c1` (centres undefined), for which the cell number change worked out at 14.7%.

`COCCn1c(SCC(=O)N(C)C2CCS(=O)(=O)C2)nc2ccccc2c1=O` (centres undefined): the cell number change was -33.6%. Moreover, under setting [2], the AC50 is 0.731 µM [falling, full curve].

On to `Cc1ccccc1-n1ncc2c([N+](=O)[O-])cc([N+](=O)[O-])cc21`, for which the cell number change came out at 98.5%. Besides, under setting [2], the half-maximal activity concentration (AC50) was 29.1 µM [rising, single point]. Besides, the AC50 under setting [1] is 29.1 µM [rising, single point].

On to `CCSc1nnc(NC(=O)CC(C)C)s1`, for which the AC50 under setting [1] is 5.8 µM [rising, partial curve].

Consider `CCN(C(=O)COC(=O)CNC(=O)c1sc2ccccc2c1Cl)C1CCCCC1`, for which, under setting [2], the half-maximal activity concentration (AC50) was 0.146 µM [rising, full curve, poor fit].

On to `O=c1c2c3c(sc2n(CCN2CCCC2)c(=O)n1Cc1ccccc1)CCCCC3`, for which the cell number change turned out to be 4.77%. Under setting [1], the AC50 was 23.1 µM [rising, single point].

For `Cc1ccc(S(=O)(=O)N2CC(O)CC2C(=O)OCC(=O)c2ccccc2Cl)cc1C` (centres undefined), the cell number change was -36.3%. For the same compound, the half-maximal activity concentration (AC50) under setting [2] was 29.1 µM [falling, single point].
